Test [1] addresses recombinant human S100A4 (human) (UniProt P26447). The test can be described thus: condition: only with 25 µg RAGE H300 antibody (sc-5563) added to the lysate; pull-down; as a1, but 25 µg RAGE H300 antibody (sc-5563) added to the lysate prior to bead incubation; only the target purified.
Test [2] shares this target. Nature of the test: pull-down; rS100A4 covalently coupled to Dynabeads, blocked with 2% BSA in PBS; incubated with RIPA lysate of 3 x 10^7 HCT116/RAGE cells overnight at 4°C; washed three times with PBS; Western blot for RAGE; only the target purified.

By UniProt entry, the sequences of proteins in these tests, tags left out. Residues count along the entry.
UniProt P26447: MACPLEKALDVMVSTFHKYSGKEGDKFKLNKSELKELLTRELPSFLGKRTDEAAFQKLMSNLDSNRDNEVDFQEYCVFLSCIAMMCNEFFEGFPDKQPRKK
UniProt Q15109, residues 23-404: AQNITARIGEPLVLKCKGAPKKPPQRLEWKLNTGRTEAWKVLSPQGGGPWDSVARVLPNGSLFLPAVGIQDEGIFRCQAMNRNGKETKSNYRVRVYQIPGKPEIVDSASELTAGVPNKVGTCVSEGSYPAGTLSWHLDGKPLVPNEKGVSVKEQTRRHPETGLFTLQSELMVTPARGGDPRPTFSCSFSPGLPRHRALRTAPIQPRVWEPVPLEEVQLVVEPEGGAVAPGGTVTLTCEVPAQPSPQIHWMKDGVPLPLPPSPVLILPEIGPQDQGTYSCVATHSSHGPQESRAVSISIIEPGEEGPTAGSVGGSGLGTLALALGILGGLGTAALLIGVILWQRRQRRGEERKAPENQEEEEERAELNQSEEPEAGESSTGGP

The source of these data is paper PMC4102805.

These are yes or no findings as the source states them, for the method shown. Binding seen in cells or lysates may run through a third protein. Some results given as binding are weak or reduced against the parent protein; the word gives no strength.

In the case of “receptor for advanced glycation end products (RAGE), human full length (from UniProt Q15109 23-404)”, the binding entry in test [1] is “no binding”; in test [2] it was “binds”.
